PubChem BioAssay AID1259291 – Sanger Institute, 2017

- Aim: 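Find kinase and colorectal-cancer-mutated genes whose loss kills HT29 cells or aids anchor drugs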 (primary screen)
- System: HT29 human colorectal cancer cells
- Reagents: siRNA pool against human genes
- Challenge: anchor drugs added a day after transfection: BYL719 at 1 µM, cetuximab at 5 µg/ml or trametinib at 10 nM, or DMSO vehicle alone
- Detection: 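Cell viability as a fraction of the non-targeting pool, mean of replicates, robust z-scores from control wells; synergy scores for BYL719 (1 µM), cetuximab (5 µg/ml), trametinib (10 nM)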
- Direction: robust z-score, knock-down alone and viability, knock-down alone: higher = more viable cells
- Units: viability, knock-down alone in fraction of control
- Active means: 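Essential when the robust z-score for knock-down without any drug is below -3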
- Meaning of the calls: active = essential (knock-down alone); inactive = no change alone
The deposit covers 794 reagents; below is a random part of them. In the full data, 15 (1.9%) were called active. 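Calls rest on knock-down alone; drug synergy scores do not affect them; drugs added a day post-transfection, DMSO vehicle as comparison.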 Viability is capped at 1. Not all columns of the deposit are shown. The record does not give: the amount of reagent, the time to read-out.

The opening 3 records, ahead of the listing:
PSKH2
- robust z-score, knock-down alone: 0.552
- viability, knock-down alone: 1
- Outcome: inactive

HUNK
- robust z-score, knock-down alone: -1.12
- viability, knock-down alone: 0.896
- Outcome: inactive

PRKACG
- robust z-score, knock-down alone: 0.552
- viability, knock-down alone: 1
- Outcome: inactive

The list itself, from the first entry:
PSKH2
- robust z-score, knock-down alone: 0.552
- viability, knock-down alone: 1
- Outcome: inactive

HUNK
- robust z-score, knock-down alone: -1.12
- viability, knock-down alone: 0.896
- Outcome: inactive

PRKACG
- robust z-score, knock-down alone: 0.552
- viability, knock-down alone: 1
- Outcome: inactive

CTCF
- robust z-score, knock-down alone: -1.21
- viability, knock-down alone: 0.891
- Outcome: inactive

CDK3
- robust z-score, knock-down alone: 0.552
- viability, knock-down alone: 1
- Outcome: inactive

PRKCSH
- robust z-score, knock-down alone: 0.552
- viability, knock-down alone: 1
- Outcome: inactive

PFKM
- robust z-score, knock-down alone: 0.552
- viability, knock-down alone: 1
- Outcome: inactive

NEK11
- robust z-score, knock-down alone: -2.03
- viability, knock-down alone: 0.84
- Outcome: inactive

MARK1
- robust z-score, knock-down alone: 0.552
- viability, knock-down alone: 1
- Outcome: inactive

GRK6
- robust z-score, knock-down alone: 0.552
- viability, knock-down alone: 1
- Outcome: inactive

ERN1
- robust z-score, knock-down alone: 0.552
- viability, knock-down alone: 1
- Outcome: inactive

BRD2
- robust z-score, knock-down alone: 0.552
- viability, knock-down alone: 1
- Outcome: inactive

PRKAG3
- robust z-score, knock-down alone: 0.552
- viability, knock-down alone: 1
- Outcome: inactive

GRK1
- robust z-score, knock-down alone: 0.552
- viability, knock-down alone: 1
- Outcome: inactive

EFNA5
- robust z-score, knock-down alone: -0.516
- viability, knock-down alone: 0.934
- Outcome: inactive

ARAF
- robust z-score, knock-down alone: 0.29
- viability, knock-down alone: 0.984
- Outcome: inactive

PPP2R1A
- robust z-score, knock-down alone: 0.552
- viability, knock-down alone: 1
- Outcome: inactive

GAK
- robust z-score, knock-down alone: 0.552
- viability, knock-down alone: 1
- Outcome: inactive

EPHA3
- robust z-score, knock-down alone: -1.21
- viability, knock-down alone: 0.891
- Outcome: inactive

CKS2
- robust z-score, knock-down alone: -3
- viability, knock-down alone: 0.78
- Outcome: inactive

IPPK
- robust z-score, knock-down alone: -1.46
- viability, knock-down alone: 0.875
- Outcome: inactive

RIPK3
- robust z-score, knock-down alone: -1.01
- viability, knock-down alone: 0.903
- Outcome: inactive

MAP3K1
- robust z-score, knock-down alone: -5.61
- viability, knock-down alone: 0.618
- Outcome: active

NTRK1
- robust z-score, knock-down alone: -1.98
- viability, knock-down alone: 0.843
- Outcome: inactive

DSTYK
- robust z-score, knock-down alone: 0.552
- viability, knock-down alone: 1
- Outcome: inactive

TAOK2
- robust z-score, knock-down alone: -1.54
- viability, knock-down alone: 0.87
- Outcome: inactive

ETNK2
- robust z-score, knock-down alone: 0.552
- viability, knock-down alone: 1
- Outcome: inactive

PIK3CB
- robust z-score, knock-down alone: 0.552
- viability, knock-down alone: 1
- Outcome: inactive
